Our source for the binding values is article doi:10.1101/2025.02.27.640555.

No constants are given. Whether binding was seen depends on the method and setting. In cells and extracts the contact can be indirect. Here binding means that the protein was enriched with, or labelled near, the bait; the list need not be complete.

This test concerns the target HA-tagged SARS-CoV-2 nsp3 (pK1E-HA-SARS-CoV-2-nsp3) (SARS-CoV-2) (UniProt P0DTD1). Put plainly: affinity purification with mass spectrometry.
Regarding “DEAD-box RNA helicase 5 (DDX5), endogenous in HEK293T (from UniProt P17844 1-614)”, the binding entry was “binds”.

For “DExD-box helicase 39B (DDX39B), endogenous in HEK293T (from UniProt Q13838 1-428)”, the binding result is “binds”.

On to GAPDH (from UniProt P04406 1-335), for which the binding entry is “binds”.

Turning to SRSF1 (from UniProt Q07955 1-248), the binding entry is recorded as “binds”.

For “Serrate RNA effector molecule homolog (SRRT), endogenous in HEK293T (from UniProt Q9BXP5 1-876)”, the binding entry is listed as “binds”.

As for “UBA1, endogenous in HEK293T (from UniProt P22314 1-1058)”, the binding entry is “binds”.

For “cleavage and polyadenylation specificity factor subunit 6 (CPSF6), endogenous in HEK293T (from UniProt Q16630 1-551)”, the binding entry is recorded as “binds”.

For “eukaryotic initiation factor 4A3 (eIF4A3), endogenous in HEK293T (from UniProt P38919 1-411)”, the binding result is reported as “binds”.

Consider “nucleoside diphosphokinase 1 (NME1) (from UniProt P15531 1-152)”, for which the binding result was “binds”.

Turning to “nucleoside diphosphokinase 2 (NME2) (from UniProt P22392 1-152)”, the binding result is given as “binds”.
